Results deposited as PubChem BioAssay AID1224830 (NIAID, 2016).
The whole screen tested about 18,000 reagents; below is a part drawn at random. Of all reagents, about 2,900 (16%) are marked active. 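Calls are made per well; low scores hint the gene aids the LPS response, high scores that it dampens it.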 The numbers tell different reagents against one gene apart. Repeated entries: four replicate wells of each siRNA pool.

- Screen: 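Regulators of TLR4 signalling towards TNF-alpha in macrophage-like cells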 (primary screen)
- System: human THP-1 monocytic leukaemia cells, TNF dual-luciferase reporter clone, PMA-differentiated to macrophage-like cells
- Knock-down reagent: siRNA pool against human genes, 50 nM
- Timing: LPS for 4 h, given about 3 days after siRNA transfection
- Challenge: bacterial LPS (TLR4 ligand), 10 ng/ml
- Measured: 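TNF firefly reporter luminescence divided by renilla, normalised to the plate median, then turned into a robust z-score for each replicate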
- Scale: TNF reporter robust z-score: higher = stronger TNF reporter response to LPS
- Active means: 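Each well counts as active if its z-score is over 2.8 or under -1.5; controls are left without a call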

gene knocked down | reagent | TNF reporter robust z-score | activity call
CYSLTR1 (cysteinyl leukotriene receptor 1) | 1 | 1.86 | inactive
CYSLTR1 (cysteinyl leukotriene receptor 1) | 1 | 0.27 | inactive
CYSLTR1 (cysteinyl leukotriene receptor 1) | 1 | 0.22 | inactive
CYSLTR1 (cysteinyl leukotriene receptor 1) | 1 | -0.03 | inactive
CMC1 (C-X9-C motif containing 1) | 1 | -0.48 | inactive
CMC1 (C-X9-C motif containing 1) | 1 | -0.27 | inactive
CMC1 (C-X9-C motif containing 1) | 1 | -1.42 | inactive
CMC1 (C-X9-C motif containing 1) | 1 | -0.53 | inactive
LHX9 (LIM homeobox 9) | 1 | 0.43 | inactive
LHX9 (LIM homeobox 9) | 1 | 1.02 | inactive
LHX9 (LIM homeobox 9) | 1 | 0.71 | inactive
LHX9 (LIM homeobox 9) | 1 | 0.5 | inactive
HYAL1 (hyaluronidase 1) | 1 | -0.91 | inactive
HYAL1 (hyaluronidase 1) | 1 | -0.86 | inactive
HYAL1 (hyaluronidase 1) | 1 | -1 | inactive
HYAL1 (hyaluronidase 1) | 1 | -0.09 | inactive
ASF1B (anti-silencing function 1B histone chaperone) | 1 | -0.88 | inactive
ASF1B (anti-silencing function 1B histone chaperone) | 1 | -0.58 | inactive
ASF1B (anti-silencing function 1B histone chaperone) | 1 | -0.6 | inactive
ASF1B (anti-silencing function 1B histone chaperone) | 1 | 0.82 | inactive
SIRT3 (sirtuin 3) | 1 | 0.56 | inactive
SIRT3 (sirtuin 3) | 1 | 1.1 | inactive
SIRT3 (sirtuin 3) | 1 | -0.35 | inactive
SIRT3 (sirtuin 3) | 1 | 0.36 | inactive
SCAF8 (SR-related CTD associated factor 8) | 1 | 1.59 | inactive
SCAF8 (SR-related CTD associated factor 8) | 1 | 1.29 | inactive
SCAF8 (SR-related CTD associated factor 8) | 1 | 0.1 | inactive
SCAF8 (SR-related CTD associated factor 8) | 1 | 0.81 | inactive
LAG3 (lymphocyte activating 3) | 1 | -0.44 | inactive
LAG3 (lymphocyte activating 3) | 1 | -0.29 | inactive
LAG3 (lymphocyte activating 3) | 1 | -0.89 | inactive
LAG3 (lymphocyte activating 3) | 1 | -0.14 | inactive
CCDC7 (coiled-coil domain containing 7) | 1 | -0.41 | inactive
CCDC7 (coiled-coil domain containing 7) | 1 | -0.23 | inactive
CCDC7 (coiled-coil domain containing 7) | 1 | -0.61 | inactive
CCDC7 (coiled-coil domain containing 7) | 1 | 0.18 | inactive
CCDC7 (coiled-coil domain containing 7) | 2 | 1.33 | inactive
CCDC7 (coiled-coil domain containing 7) | 2 | 1.89 | inactive
CCDC7 (coiled-coil domain containing 7) | 2 | 0 | inactive
CCDC7 (coiled-coil domain containing 7) | 2 | 0.78 | inactive
MRM3 (mitochondrial rRNA methyltransferase 3) | 1 | -1.96 | active
MRM3 (mitochondrial rRNA methyltransferase 3) | 1 | -1.4 | inactive
MRM3 (mitochondrial rRNA methyltransferase 3) | 1 | -1.8 | active
MRM3 (mitochondrial rRNA methyltransferase 3) | 1 | -1.41 | inactive
TSPYL6 (TSPY like 6) | 1 | 2.58 | inactive
TSPYL6 (TSPY like 6) | 1 | 1.29 | inactive
TSPYL6 (TSPY like 6) | 1 | 0.58 | inactive
TSPYL6 (TSPY like 6) | 1 | -1.45 | inactive

Records above whose target name starts with T or t:
gene knocked down | reagent | TNF reporter robust z-score | activity call
TSPYL6 (TSPY like 6) | 1 | 2.58 | inactive
TSPYL6 (TSPY like 6) | 1 | 1.29 | inactive
TSPYL6 (TSPY like 6) | 1 | 0.58 | inactive
TSPYL6 (TSPY like 6) | 1 | -1.45 | inactive
